Results deposited as PubChem BioAssay AID1259308 (NCATS, 2017).

- Screen: 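Knock-downs that increase output of a recombinant reporter protein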 (primary screen)
- System: human HEK293 embryonic kidney cells stably expressing firefly luciferase (HEK-CMV-Luc2-Hygro)
- Reagents: single siRNA against human genes, 0.8 pmol siRNA per well
- Duration: 72 h
- Detection: 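Reporter luminescence and viable-cell signal on separate replicate plates, given as percent of non-targeting control and median/MAD z-scores, plus per-cell luciferase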
- Direction: total luciferase, z-score and total luciferase, % of control: higher = more reporter protein produced; luciferase per cell, z-score: higher = more reporter output per viable cell; viable cells, % of control: higher = more viable cells
- Call rule: 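Active when the median/MAD z-score for overall luciferase is greater than 3; a gene was taken forward for validation with new siRNAs if at least two of its three siRNAs passed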
- Calls: active = raised luciferase; inactive = no rise
In all, the deposit lists about 59,000 reagents; below is an unselected part. Over the whole deposit, about 1,510 (2.6%) got an active call. 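Calls use total luciferase alone and ignore viability, so some active siRNAs may act by altering cell number.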 Reagents against one gene are numbered here.

target	reagent no.	total luciferase, z-score	total luciferase, % of control	luciferase per cell, z-score	viable cells, % of control	Call
FADS1 (fatty acid desaturase 1)	1	0.974	101	1.59	74.5	inactive
FADS1 (fatty acid desaturase 1)	2	-1.52	51.7	-1.82	93.2	inactive
FADS1 (fatty acid desaturase 1)	3	-0.334	75.2	-0.183	88.2	inactive
TNNC2 (troponin C2, fast skeletal type)	1	-0.756	66.9	-1.31	105	inactive
TNNC2 (troponin C2, fast skeletal type)	2	0.973	101	0.915	88.9	inactive
TNNC2 (troponin C2, fast skeletal type)	3	0.292	87.7	0.0476	96.8	inactive
AMZ2 (archaelysin family metallopeptidase 2)	1	-0.411	73.7	-0.384	91.1	inactive
AMZ2 (archaelysin family metallopeptidase 2)	2	-0.729	67.4	-0.241	80.2	inactive
AMZ2 (archaelysin family metallopeptidase 2)	3	1.41	110	1.48	83.2	inactive
FABP5P10 (fatty acid binding protein 5 pseudogene 10)	1	1.99	121	1.46	92.3	inactive
FABP5P10 (fatty acid binding protein 5 pseudogene 10)	2	-1.46	52.9	-0.86	74.1	inactive
FABP5P10 (fatty acid binding protein 5 pseudogene 10)	3	1.93	120	2.12	76.8	inactive
MPC1L	1	-1.87	44.6	0.974	38.6	inactive
MPC1L	2	-0.396	74	-0.169	86.5	inactive
MPC1L	3	-0.682	68.3	-0.728	92.5	inactive
GC (GC vitamin D binding protein)	1	-1.71	47.8	-2.34	99	inactive
GC (GC vitamin D binding protein)	2	0.68	95.4	0.683	89.1	inactive
GC (GC vitamin D binding protein)	3	0.688	95.6	0.199	101	inactive
NINL (ninein like)	1	0.124	84.3	-0.379	104	inactive
NINL (ninein like)	2	0.0456	82.8	0.526	80.5	inactive
NINL (ninein like)	3	1.38	109	1.16	90.2	inactive

An excerpt from above, showing only “total luciferase, z-score”:
FABP5P10 (fatty acid binding protein 5 pseudogene 10) #1 = 1.99
FABP5P10 (fatty acid binding protein 5 pseudogene 10) #2 = -1.46

More reagents follow:
target	reagent no.	total luciferase, z-score	total luciferase, % of control	luciferase per cell, z-score	viable cells, % of control	Call
TIGAR (TP53 induced glycolysis regulatory phosphatase)	1	0.849	98.8	0.649	93	inactive
TIGAR (TP53 induced glycolysis regulatory phosphatase)	2	1.15	105	0.351	107	inactive
TIGAR (TP53 induced glycolysis regulatory phosphatase)	3	-0.115	79.6	-0.176	93.2	inactive
FAM50A (family with sequence similarity 50 member A)	1	0.242	86.7	-0.338	106	inactive
FAM50A (family with sequence similarity 50 member A)	2	1.29	108	1.45	82.1	inactive
FAM50A (family with sequence similarity 50 member A)	3	-0.282	76.3	-0.195	89.7	inactive
PSPH (phosphoserine phosphatase)	1	1.7	116	0.91	102	inactive
PSPH (phosphoserine phosphatase)	2	0.655	94.9	0.238	99.6	inactive
PSPH (phosphoserine phosphatase)	3	0.808	97.9	0.595	93.6	inactive
ANKMY1 (ankyrin repeat and MYND domain containing 1)	1	0.934	100	0.909	88.4	inactive
ANKMY1 (ankyrin repeat and MYND domain containing 1)	2	-1.42	53.6	-0.609	70.4	inactive
ANKMY1 (ankyrin repeat and MYND domain containing 1)	3	-0.254	76.8	0.528	74.7	inactive
KRTAP12-2 (keratin associated protein 12-2)	1	2.91	140	2.9	72.8	inactive
KRTAP12-2 (keratin associated protein 12-2)	2	0.69	95.6	0.509	93.4	inactive
KRTAP12-2 (keratin associated protein 12-2)	3	-0.191	78.1	0.169	83.5	inactive
SPATA31G1 (SPATA31 subfamily G member 1)	1	1.82	118	1.43	90.4	inactive
SPATA31G1 (SPATA31 subfamily G member 1)	2	-0.564	70.7	-0.335	86.3	inactive
SPATA31G1 (SPATA31 subfamily G member 1)	3	0.164	85.2	0.159	91.3	inactive
